Measurements taken from the supplement of paper PMC10735217.
This is one part of the list. Repeats in this data set agree poorly, so a single value says little.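 The human kidney-derived cells carry a stably integrated construct of eight TEAD-binding elements driving luciferase, read by luminescence in a drug-repurposing library screen. A compound counts as a hit when its signal is more than five robust Z scores above the plate mean.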

Test system: HEK293A TEAD-LUC reporter
Test: TEAD-luciferase reporter activity (YAP activation), robust Z score vs plate; higher = stronger YAP/TEAD activation
Details: 24 h

Row | SMILES | TEAD-luciferase reporter activity (compound concentration: 200 nM) | TEAD-luciferase reporter activity (compound concentration: 2 uM) | TEAD-luciferase reporter activity (compound concentration: 10 uM)
1 | CC(C)=CCOc1cc(NC(=O)c2ncsc2C)ccc1Cl | inactive: 0.498 | inactive: 1.16 | inactive: 1.49
2 | COc1ccc(C[C@@H]2NC(=O)CC3(CCCCC3)SSC[C@@H](C(=O)N3CCC[C@H]3C(=O)N[C@@H](CCCNC(=N)N)C(=O)NCC(N)=O)NC(=O)[C@H](CC(N)=O)NC(=O)[C@H](CCC(N)=O)NC(=O)[C@H](Cc3ccccc3)NC2=O)cc1 [Manning Compound] | inactive: -0.683 | inactive: 1.01 | inactive: -0.15
3 | C=C(C#N)C(=O)OCCCC [n-Butyl-2-cyanoacrylate] | inactive: -0.64 | inactive: 0.528 | inactive: -0.877
4 | CC1(C)N=C(c2cccc[n+]2[O-])c2cc(Br)c(Cl)cc2O1 | inactive: -1.88 | inactive: 0.247 | inactive: 1.64
5 | COC(=O)[C@H]1CC[C@@H]2[C@@H]3CC[C@@H]4NC(=O)C=C[C@]4(C)C3CC[C@]12C (stereo partly specified) | inactive: -0.867 | inactive: -0.169 | inactive: -2.35
6 | O=C(Cc1cccc(Cl)c1)N1CCC(C(=O)N2CCC(c3ccccc3)CC2)CC1 | inactive: -0.886 | – | inactive: 1.1
7 | NS(=O)(=O)c1ccc(-n2nc(C(F)(F)F)cc2-c2ccc(F)cc2)cc1 [Mavacoxib] | inactive: 0.429 | inactive: -1.22 | inactive: 2.72
8 | CN1CCCCC1CCN1c2ccccc2Sc2ccc(S(C)(=O)=O)cc21 (stereo unspecified) | inactive: -1.68 | inactive: -0.927 | inactive: 2.35
9 | CCN(c1ccccc1)c1cc(NC)[n+](C)c(C)n1 | inactive: -0.979 | inactive: -1.57 | inactive: -0.233
10 | O=C(Nc1nccs1)c1c(C(Cl)Cl)nc2c(C(F)(F)F)cccc2c1O | inactive: 0.0422 | inactive: 0.953 | inactive: 1.03
11 | O=C1NCc2ccccc2CC12CCCCN2Cc1ccccc1F (stereo unspecified) | inactive: 3.06 | – | inactive: -0.418
12 | CCOc1ccccc1-n1c(C)ccc1-c1ccccc1 | inactive: -1.71 | inactive: 2.38 | inactive: 0.947
13 | CC1(C)CC(NC(=O)C(=O)Nc2ccc(Br)cc2)CC(C)(C)N1 | inactive: 1.97 | inactive: -1.19 | inactive: 0.811
14 | CCCCCCc1ccc(O)cc1O | inactive: -0.209 | inactive: 3.13 | inactive: -1.89
15 | CN(C)Cc1ccc(C2CCCCC2)cc1 | inactive: -2.22 | inactive: 1.85 | inactive: -0.56
16 | CCC/N=C1\S/C(=C/c2ccc(OCCO)c(Cl)c2)C(=O)N1c1ccccc1C | inactive: 1.75 | inactive: -0.364 | inactive: 1.45

Laid out differently: entries from further up.
Row	SMILES	TEAD-luciferase reporter activity (compound concentration: 200 nM)	TEAD-luciferase reporter activity (compound concentration: 2 uM)	TEAD-luciferase reporter activity (compound concentration: 10 uM)
12	CCOc1ccccc1-n1c(C)ccc1-c1ccccc1	inactive: -1.71	inactive: 2.38	inactive: 0.947
13	CC1(C)CC(NC(=O)C(=O)Nc2ccc(Br)cc2)CC(C)(C)N1	inactive: 1.97	inactive: -1.19	inactive: 0.811
14	CCCCCCc1ccc(O)cc1O	inactive: -0.209	inactive: 3.13	inactive: -1.89
